Laboratory results reported in patent publication US11896673B2, “Glucose responsive insulin delivery compositions and methods” (NORTH CAROLINA STATE UNIVERSITY, priority 2016, dated 2024).

Tested on: mRBCs
Experiment: Binding/loading of Glu-Insulin to mouse RBCs (confocal, flow cytometry, ELISA)
Details: for Glu-Insulin attached to mRBCs (loading efficiency): 1×10^8 RBCs, 0.5 mg/mL Glu-Insulin in 500 μL PBS overnight
Description: Preparation of insulin loaded RBCs. Whole blood was collected from the B16 mice or from a human volunteer (The study protocol was approved by the Institutional Review Board at North Carolina State University). RBCs were separated from the whole blood by centrifugation (1000 g, 10 min) and washed thrice with cold PBS (300 mOsm, pH=8.0) to remove the glucose intracellularly. To load the insulin to RBC membrane, Glu-Insulin (0.5 mg/ml) was incubated with […] RBCs (1×10^8) under gentle stirring at 4° C. overnight. RBCs were washed thrice with cold PBS (300 mOsm, pH 8) to remove the unconjugated Glu-Insulin. Bound insulin was determined by ELISA assay.

Substance: Glu-Insulin: human recombinant insulin conjugated to two glucose (glucosamine) molecules via a bifunctional maleimide (Sulfo-SMCC/thiol) linker
- Glu-Insulin attached to mRBCs (loading efficiency): 20%
- Glu-Insulin attached to mRBCs (loading efficiency) (listed as glucose-insulin): approximately 20%
- Glu-Insulin coupled per mRBC (ELISA): up to 5*10^−13 g per cell
